Reference: the supplement of paper PMC12764529
± gives the half width of the 95% confidence interval. For many entries, trypsin and chymotrypsin gave values far apart.

Tests used:
[1] = folding stability dG unfold from trypsin proteolysis; higher = more stable
Procedure, shortened: (§1)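 K50 was inferred by Bayesian fitting of sequencing counts obtained after protease digestion of designed mini-proteins. Unfolding free energy was derived by comparison with a sequence-predicted unfolded-state K50 and a shared folded-state K50, for each protease or both combined. The mini-proteins were under 80 residues, had no cysteine, were carried in a PA-tagged cDNA display construct, and were kept only if AlphaFold2 dimer inter-PAE exceeded 15.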

[2] = folding stability dG unfold from chymotrypsin proteolysis; higher = more stable
Procedure, shortened: as §1

[3] = folding stability dG unfold (combined trypsin and chymotrypsin); higher = more stable
Procedure, shortened: as §1

Sequence	folding stability dG unfold [1] [kcal/mol]	folding stability dG unfold [2] [kcal/mol]	folding stability dG unfold [3] [kcal/mol]
SAGGSAGGSAGVRYDPDGWIEITITVMFFEWERDPDNGKWKMKMETVTVTIRIPVPPGAKSAGGSAGGSAGG [r17_527_TrROS]	2.04 ± 0.14	4.89 ± 0.17	4.31 ± 0.4
SAGGSAGGSAGYFLAEFEIKIKFRNPDNGQWMDMTIRIPVYIVPPKPTPKRDPNGDWKPDSAGGSAGGSAGG [r11_307_TrROS]	1.47 ± 0.098	3.99 ± 0.13	3.41 ± 0.24
SAGGSAGGSAMKIVKITTTQLPNGTTKVTVTFSDGSTKTVTIPPNQPGKSAEEVAKKVLLESAGGSAGGSAG [r3_368_JUSTAS]	1.8 ± 0.055	3.37 ± 0.054	2.96 ± 0.087
SAGGSAGGSKKISLKDIKKVEVKKNKNGTYEVTIEVNGKKLTLTIKNGKIYLSDEAKKLLKKASAGGSAGGS [r20_92_TrROS_Hall]	0.487 ± 0.19	2.99 ± 0.15	2.25 ± 0.33
SAGKKIPAEELAKWIAKEFGFPPNMNVEVWYDPDTYTVRMPNYTIIITWEDGEIEIEIIPPKPDPEDRKSAG [r5_190_TrROS]	1.28 ± 0.023	3.59 ± 0.082	3.01 ± 0.15
MTIEIIYWFKDEEEALEFAEEFARMLARQLGLPPEYLENIKIEVEVEEEKNEDGNRYYWVTIKIKIPPGFKS [r1_81_TrROS]	3.86 ± 0.31	6.23 ± 0.34	> 6
SAGKDGDPPKRVRIKFKIPLPGGKLYEVTQTFYPNGSVHVSIRFPNGWMLSAWIPPDGDIEIKIMPIKKSAG [r5_168_TrROS]	3.37 ± 0.21	4.3 ± 0.14	4 ± 0.23
SHHHHHHHMTEKTETVPTYKVETKTFTLPDGTTEREVTITLPGGLVTKELYRYDTVTGTWTLLKTETVLLSA [r9_795_JUSTAS]	1.7 ± 0.047	4.262 ± 0.039	3.72 ± 0.083
SAGGETIKIKITLTNENGEKAEITEVTIEKKDGYVTITVTVKLSNGEEKEVTLTLVLKLPPPPKEKKSAGGS [r16_132_TrROS_Hall]	1.66 ± 0.15	4.3 ± 0.19	4.13 ± 0.3
SAGGSAGGSAGGKPKIEIELTFIDEDGYAYRLRAEIEIDEDGNVHIEVEIEKVPLPEGLSAGGSAGGSAGGS [r10_563_TrROS_Hall]	2.9 ± 0.14	3.28 ± 0.13	3.18 ± 0.21
SMEPMSREEAEALAREMAEAGARRVLLLFAPDGRLLALRPAEEATEEEVAALRRARPGLRVEELEGSPGESA [r9_568_JUSTAS]	0.425 ± 0.16	2.97 ± 0.062	2.07 ± 0.15
SAGGMVTLTLPSPDGSTLTVTVEKDPNADYYRATVTTHHPDGTVTVTESVIHPDGTTTTLATTTLPASAGGS [r16_213_JUSTAS]	2.11 ± 0.08	2.22 ± 0.04	2.23 ± 0.12
SAGGSAGGSAGGITPEYVERARKEAQDQYPPGKEREIIIRNPDNGKEITIRYTPDKIEIMSAGGSAGGSAGG [r7_45_TrROS]	0.0182 ± 0.12	-0.289 ± 0.16	-0.147 ± 0.24
SAGGEPMPPGDKLPITPEAKKLAKKLAPENGAKDVEIKVTQFVPGYVHIKIRNPMNGKKIEIWIPIDSAGGS [r16_281_TrROS]	2.47 ± 0.099	0.453 ± 0.33	1.46 ± 0.42
SAGGSAGGSAGSSPSDLKVTLKVTLPDGTVLTVVMPAHATLDDFPADRPVTVTTLETKLESAGGSAGGSAGG [r11_997_JUSTAS]	1.66 ± 0.084	0.656 ± 0.043	1.29 ± 0.12
SAGGDFEIVEITSVEYDPETNTVTVKVTIRNKETGKTFVAEFEVNPEDKNTVTVRIYDKDGKLIAEFPSAGG [r13_658_TrROS_Hall]	3.28 ± 0.12	5.37 ± 0.22	5.5 ± 0.8
SAGGSGMTTTFSKEVSSKEEAEKIFKRGFPDLNAKVTKFDPKKGTVEIELTFPDGKKSKATAPIKKSAGGSA [r2_201_JUSTAS]	-0.569 ± 0.58	0.0996 ± 0.5	-0.225 ± 0.37
SAGGSAGGSEEVKTVTVTRIEELPDGTVRVFVRNEDGSVQEFTFPKEDLKIELPPGAEVRIVPSAGGSAGGS [r12_746_TrROS_Hall]	0.948 ± 0.018	3.145 ± 0.019	2.7 ± 0.035
SAGGNRKFTLIIRIKAPPGDPDKMKEEVKEIANEIADIFRDHGVKVKVKVEYDPDNGEIYVQVEFEVPSAGG [r13_755_TrROS]	3.89 ± 0.29	5.12 ± 0.31	4.78 ± 0.29
SMKKGEKKYKIKVKIYVYNKNGKPIKEIEIEIEVSEEELEKLKKLAEELAEKLNIKDLKIEIVEIEIEEESA [r9_376_TrROS_Hall]	1.12 ± 0.18	3.29 ± 0.046	2.94 ± 0.2
SAGGMITPEEIQDLEVKPVPPEVYKATGYIEVTLYGPGGEPIATIKVKVDIKSLVKPNGPVLGKEKLISAGG [r13_864_JUSTAS]	-0.262 ± 0.26	3.25 ± 0.075	2.67 ± 0.27

Sequence	folding stability dG unfold [1] [kcal/mol]	folding stability dG unfold [2] [kcal/mol]	folding stability dG unfold [3] [kcal/mol]
SAGGSMKVERSESGTITITFSTSSPEEVEKIKEEAEKKGMKYELKYDPNNNIWTITFEVPKELLEKSAGGSA [r2_224_JUSTAS]	1.13 ± 0.085	4.41 ± 0.14	4.07 ± 0.32
SAGTIEINYWVRPGNTPEMVANELAKHFPYIKEIEVDEIEWRRDPENGREWYRVDVEIKLKKMPPELLKSAG [r5_326_TrROS]	2.91 ± 0.57	5.31 ± 0.29	3.17 ± 0.73
SAGGSAGGVTINFPDGVTIMVDPGTGKIYIMNPNGYIFKFTIERKPNEWKLKIEPIKPIPPDDFSAGGSAGG [r6_324_TrROS]	2.55 ± 0.085	3.7 ± 0.091	3.16 ± 0.19
SAGGSAGGSAGGDNDDAPPIEIEPVEHETYMNPDGWGIEINVYRIKGGATFIALSIMPMDSAGGSAGGSAGG [r7_948_TrROS]	2.35 ± 0.19	4.52 ± 0.31	3.6 ± 0.37
SAGAKIKVEKLEDGTYKVTITFYDKDGKKIAEKEFTVKNPKTGKYYKIRIKIEKKDGKLVIKIEIEEVSAGG [r19_185_TrROS_Hall]	3.71 ± 0.26	5.97 ± 0.32	> 6
SAGGNIEIEMHMYRDPDDGYIIMAMTIEIEVTVPPSPEMRDNMPPGQTRTRTITFIFVFPLPPGDLKSAGGS [r8_274_TrROS]	2.77 ± 0.077	5.22 ± 0.17	4.71 ± 0.11
SAGGSAGGSKKVKIVSIEEKEGFVKVKIKFPDGSEKTIVMSEEEIKELAEKLNVEVEIVEVEPSAGGSAGGS [r12_676_TrROS_Hall]	-0.163 ± 0.11	1.91 ± 0.15	1.42 ± 0.24
SEETLKIKVTVEKVKDKNGKYRYYVSIEVNGKKYKFEIKNLKEGEKKEFTFTIKLPKEKIKKIKISIKKPSA [r9_769_TrROS_Hall]	3.31 ± 0.16	5.34 ± 0.12	5.23 ± 0.25
SAGGSLPKSAEVKVEVYEFKLNEEGYLLVVVTTPDGKVIVIPFKNPGKFSPETVKKIEELVKEIEGSAGGSA [r2_17_TrMRF]	1.34 ± 0.07	3.93 ± 0.092	3.48 ± 0.14
SAGGSAGGSAGGNWVMIEFNFPPGKKLKIEIPNGRDIQRHRDPDNGTLWFMIPPEAAEDFSAGGSAGGSAGG [r7_155_TrROS]	0.649 ± 0.11	0.509 ± 0.26	0.636 ± 0.27
SAGGIEDIANEFGIEDVEIEEINPEYNEVTVTFRFRGPNGNPFTWTYTIEVPPPPPPEPKMDPEDNNNSAGG [r13_608_TrROS]	1.06 ± 0.12	2.44 ± 0.16	1.81 ± 0.32
SAGGSAKEVKKITLEIEVNGKKLKIEVTYNKDNPKVTVKIYDKNGKLIKTKTMTLEELKKLLKELKSAGGSA [r15_940_TrROS_Hall]	2.13 ± 0.075	4.3 ± 0.057	3.84 ± 0.13
SAGGSAGGSAGGKPVVTIEVTVLLEDGTLVKVEIEYDANGRIVSIKVEVVRLEDLPPELLSAGGSAGGSAGG [r11_493_TrROS_Hall]	2.71 ± 0.2	-0.2 ± 0.25	1.84 ± 0.22
KTITIVVKVPSLEEVEALAAELAKELNLPPGAKVEVKVEYDEETGYVVVTVTVTNPNGEKIEIKIVVELPDS [r1_84_TrROS_Hall]	1.86 ± 0.1	3.72 ± 0.38	3.08 ± 0.22
SAGGSAGGSAKIWIILKDADEARDRIEELFGPGVRIEPVNIQRWDGKVYVMIEIEIPPNMTSAGGSAGGSAG [r3_87_TrROS]	2.1 ± 0.055	2.4 ± 0.051	2.28 ± 0.054
MRRFEFPETGLVVPVVPSPDGRYRVRIYRPGGELVLEVELPDLPIPEGSDAEIRIPLKDLPPDLVTFVEPES [r1_263_TrMRF]	0.819 ± 0.054	1.46 ± 0.09	1.21 ± 0.11
SAGPPNIEIKIERNPENGFLNVDIEYPDGQTVTYMFFLPDGRILVFTFTIDPGNGKIQDIEPEWIPLPNSAG [r5_587_TrROS]	2.97 ± 0.17	5.45 ± 0.29	4.75 ± 0.49
SAGGSAGGPEVKILKVDPENNTITLALPVDNEILLLEIKIEPDPENPNSFKATIELKVFPYNEASAGGSAGG [r6_371_TrMRF]	2.33 ± 0.28	3.21 ± 0.096	2.8 ± 0.26
SAGGPNVPIRIRVTIERQDPDGEPKDFEFPIEYPMPPDDPEQAKEQIEELAESIAEKHGYKVEIEIEPSAGG [r13_853_TrROS]	-0.664 ± 0.18	-0.45 ± 0.29	-0.627 ± 0.55
SKSISISIPKTAPNVLPEEIAANLASLGYDVEIVSVEFDPETGKVTVHYRVYNPNGELLVDVHVEIDFGDSA [r9_879_TrMRF]	1.13 ± 0.028	3.38 ± 0.064	3 ± 0.095
SAGGSAEIEITVTVPPEMTEEEIKEQLEAELQRLTGEKVEIVDIRVEEVNGELTVTVKIKIEPAPPSAGGSA [r15_105_TrROS_Hall]	3.04 ± 0.28	2.71 ± 0.2	2.85 ± 0.3

Random excerpt: 3 entries already listed.
Sequence	folding stability dG unfold [1] [kcal/mol]	folding stability dG unfold [2] [kcal/mol]	folding stability dG unfold [3] [kcal/mol]
SKSISISIPKTAPNVLPEEIAANLASLGYDVEIVSVEFDPETGKVTVHYRVYNPNGELLVDVHVEIDFGDSA [r9_879_TrMRF]	1.13 ± 0.028	3.38 ± 0.064	3 ± 0.095
SAGGIEDIANEFGIEDVEIEEINPEYNEVTVTFRFRGPNGNPFTWTYTIEVPPPPPPEPKMDPEDNNNSAGG [r13_608_TrROS]	1.06 ± 0.12	2.44 ± 0.16	1.81 ± 0.32
SAGGSAGGSAKIWIILKDADEARDRIEELFGPGVRIEPVNIQRWDGKVYVMIEIEIPPNMTSAGGSAGGSAG [r3_87_TrROS]	2.1 ± 0.055	2.4 ± 0.051	2.28 ± 0.054
